In publication PMC11425265:
Results are given in words; binding and its absence hold for the method and conditions named. Binding seen in cells or lysates may run through a third protein. Some results given as binding are weak or reduced against the parent protein; the word gives no strength.

Sequences of proteins named here, by UniProt entry; tags and fusion partners are left off.
UniProt P62316: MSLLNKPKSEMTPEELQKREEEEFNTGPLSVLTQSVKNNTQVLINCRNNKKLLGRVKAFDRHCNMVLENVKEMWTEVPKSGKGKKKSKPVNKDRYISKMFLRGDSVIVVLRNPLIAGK

Molecular target: SNRPD2 (PD2) (human) (UniProt P62316)
Test: co-IP; independent IP assay in HCCLM3 cells; bait and antibody not told in the text shown

B1: HNRNPL (PL) (protein, UniProt P14866 1-589)
chain: MSRRLLPRAEKRRRRLEQRQQPDEQRRRSGAMVKMAAAGGGGGGGRYYGGGSEGGRAPKRLKTDNAGDQHGGGGGGGGGAGAAGGGGGGENYDDPHKTPASPVVHIRGLIDGVVEADLVEALQEFGPISYVVVMPKKRQALVEFEDVLGACNAVNYAADNQIYIAGHPAFVNYSTSQKISRPGDSDDSRSVNSVLLFTILNPIYSITTDVLYTICNPCGPVQRIVIFRKNGVQAMVEFDSVQSAQRAKASLNGADIYSGCCTLKIEYAKPTRLNVFKNDQDTWDYTNPNLSGQGDPGSNPNKRQRQPPLLGDHPAEYGGPHGGYHSHYHDEGYGPPPPHYEGRRMGPPVGGHRRGPSRYGPQYGHPPPPPPPPEYGPHADSPVLMVYGLDQSKMNCDRVFNVFCLYGNVEKVKFMKSKPGAAMVEMADGYAVDRAITHLNNNFMFGQKLNVCVSKQPAIMPGQSYGLEDGSCSYKDFSESRNNRFSTPEQAAKNRIQHPSNVLHFFNAPLEVTEENFFEICDELGVKRPSSVKVFSGKSERSSSGLLEWESKSDALETLGFLNHYQMKNPNGPYPYTLKLCFSTAQHAS
- binding: binds
